In PubChem BioAssay AID493014 (National Center for Advancing Translational Sciences (NCATS), 2011) one finds AC50 data, which are given here for 18 compounds.

By AC50 is commonly meant the concentration giving half of the maximal activity seen.

SMILES strings stand for the structures. Some of the results follow. Shown are side measurements of this screen, not its main read-out; they come without a call. Compounds called inactive in the main read-out are mostly missing here. The note in brackets gives the kind of curve behind each potency; many fits are weak.

The assay can be described thus: qHTS Assay to Find Inhibitors of Chronic Active B-Cell Receptor Signaling. The settings on record: ABC-DLBCL IkBa-CBG/CBR reporter, luminescence ratio (green luciferase fused to IkBa over red control in TMD8 lymphoma cells), 4 h; measured here: CBR red luminescence, cell number. The gist of the method:
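Concentration-response series (up to 46 uM) were applied to TMD8 dual-reporter cells for 4 h at 37C with doxycycline. Green/red ratio, after filter-overlap correction, defined %Activity; red signal alone was normalised to basal cells and zero luminescence.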
`Cc1oc(-c2ccc(-c3ccccc3)cc2)nc1CN1CCN(CC(=O)N(C)C)CC1`: the AC50 was 2.82 µM [falling, full curve, poor fit].
Take `CC(C)c1cc2cc3ccc(=O)oc3cc2o1`: the AC50 was 2.82 µM [rising, full curve].
In the case of `COc1ccc2[nH]c3c(=O)n(/N=C/c4ccc(OC)c(CN5CCCC5)c4)c(C)nc3c2c1`, the AC50 is 1.78 µM [falling, partial curve, poor fit].
For `O=C(Nc1nnc(-c2ccccn2)o1)c1cccc(Br)c1`, the AC50 is 16.4 µM [falling, partial curve].
The figure for `Nn1c(SCC(=O)Nc2ccc(N3CCOCC3)cc2)nnc1-c1cccc(F)c1` is 2.59 µM [rising, full curve]; for `COc1ccc(C(=O)NN/C(=N/S(=O)(=O)c2ccc(C)cc2)c2ccccc2)cc1` it is 8.91 µM [falling, partial curve, poor fit].
Under `COc1ccc(C(=O)NCC(=O)OCC(=O)Nc2ncc(Cl)cc2Cl)cc1[N+](=O)[O-]` stands 29.1 µM [rising, single point].
Under `CCc1ccccc1NC(=O)C/C(C)=N/NC(=O)COc1ccccc1C` stands 35.5 µM [falling, partial curve, poor fit]; under `COc1ccc(Cl)cc1N(CC(=O)Nc1cccc(SC)c1)S(C)(=O)=O`, 29.1 µM [falling, single point]; under `Cc1nc([N+](=O)[O-])c(Sc2nc3ccc([N+](=O)[O-])cc3[nH]2)n1Cc1ccccc1`, 9.2 µM [falling, partial curve].
For `O=C(Nc1ccccc1)c1cnc2ccccc2n1`, the AC50 was 13 µM [falling, single point].
The figure for `CC(C)(CC(=O)O)Cc1nc(-c2ccc(Cl)cc2)no1` is 9.2 µM [falling, partial curve]; for `Cc1ccnc(NC(=O)c2ccccc2[N+](=O)[O-])c1` it is 11.2 µM [falling, single point].
The figure for `C[C@@H]1C(=O)N(c2ccccc2)[C@@H]1c1ccncc1` is 29.1 µM [rising, single point].
Under `COc1cc(C(=O)NC(=S)Nc2ccccc2N2CCCC2)cc(OC)c1OC` stands 7.94 µM [falling, partial curve].
For the compound `C/C(CC(=O)Nc1cccc(C(F)(F)F)c1)=N/NC(=O)C(=O)NCCO`, the AC50 was 35.5 µM [falling, single point].
In the case of `CCC(C)Sc1nc2c(cnn2-c2ccc(C)cc2)c(=O)[nH]1` (stereo not drawn), the AC50 is 0.651 µM [rising, full curve, poor fit].
For `C[C@@]12C(=O)Nc3ccc(Br)cc3C(=O)N1[C@H]1c3cc(Br)ccc3OC[C@@H]1[C@@H]2c1ccccc1`, the AC50 was 0.731 µM [falling, partial curve, poor fit].
